In US5977088A (priority 1995, dated 1999):

Assay: Chronic conditions - evaluations of patients treated with […] hyaluronic acid with 3% diclofenac acid (HD)
Assay type: in vivo, human (patients)
Details: single patient

C[C@]12CCC(=O)C=C1CC[C@@H]1[C@@H]2C(=O)C[C@@]2(C)[C@H]1CC[C@]2(O)C(=O)CO [cortisone]
Comments on outcome (in words): transient relief
